Measurements: the supplement of paper PMC12067093, “Discovery and optimisation of a covalent ligand for TRIM25 and its application to targeted protein ubiquitination” (Chemical Science, 2025)
The other results are listed elsewhere or left out.

Protein sequences, listed by entry. Tags and fused reporters are not part of them. Lines headed by an entry give the natural chain unless they say otherwise; changes in a name come on top.
UniProt P33121: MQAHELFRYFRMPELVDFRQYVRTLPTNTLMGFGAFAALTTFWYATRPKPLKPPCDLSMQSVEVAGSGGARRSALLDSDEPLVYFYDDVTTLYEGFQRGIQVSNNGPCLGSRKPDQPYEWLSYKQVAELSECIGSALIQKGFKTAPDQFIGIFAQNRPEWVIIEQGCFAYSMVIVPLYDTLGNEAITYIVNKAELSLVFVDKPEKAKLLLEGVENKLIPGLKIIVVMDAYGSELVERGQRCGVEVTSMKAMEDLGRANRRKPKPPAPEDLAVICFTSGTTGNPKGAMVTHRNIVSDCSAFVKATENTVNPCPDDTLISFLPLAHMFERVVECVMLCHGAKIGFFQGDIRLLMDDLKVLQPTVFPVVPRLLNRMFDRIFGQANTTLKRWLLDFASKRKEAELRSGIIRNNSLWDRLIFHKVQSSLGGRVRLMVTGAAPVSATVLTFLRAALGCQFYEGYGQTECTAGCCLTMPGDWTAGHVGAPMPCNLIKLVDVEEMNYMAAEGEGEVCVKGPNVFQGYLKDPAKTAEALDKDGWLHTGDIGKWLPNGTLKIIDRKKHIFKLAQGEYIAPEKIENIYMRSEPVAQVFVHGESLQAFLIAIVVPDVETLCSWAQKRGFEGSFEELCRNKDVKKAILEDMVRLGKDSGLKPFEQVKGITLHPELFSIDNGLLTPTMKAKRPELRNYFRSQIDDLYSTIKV
UniProt P11766: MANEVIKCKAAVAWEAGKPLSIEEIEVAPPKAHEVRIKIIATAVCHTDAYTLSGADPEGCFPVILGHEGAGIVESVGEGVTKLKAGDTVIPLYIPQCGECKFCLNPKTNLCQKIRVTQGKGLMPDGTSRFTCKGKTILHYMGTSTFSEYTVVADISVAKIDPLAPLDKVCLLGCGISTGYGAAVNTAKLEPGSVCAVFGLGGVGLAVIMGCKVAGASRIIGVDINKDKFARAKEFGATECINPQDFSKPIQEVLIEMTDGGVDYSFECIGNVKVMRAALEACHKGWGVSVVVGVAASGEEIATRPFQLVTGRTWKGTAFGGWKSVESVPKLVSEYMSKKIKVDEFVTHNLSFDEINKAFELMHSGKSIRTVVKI
UniProt P30566: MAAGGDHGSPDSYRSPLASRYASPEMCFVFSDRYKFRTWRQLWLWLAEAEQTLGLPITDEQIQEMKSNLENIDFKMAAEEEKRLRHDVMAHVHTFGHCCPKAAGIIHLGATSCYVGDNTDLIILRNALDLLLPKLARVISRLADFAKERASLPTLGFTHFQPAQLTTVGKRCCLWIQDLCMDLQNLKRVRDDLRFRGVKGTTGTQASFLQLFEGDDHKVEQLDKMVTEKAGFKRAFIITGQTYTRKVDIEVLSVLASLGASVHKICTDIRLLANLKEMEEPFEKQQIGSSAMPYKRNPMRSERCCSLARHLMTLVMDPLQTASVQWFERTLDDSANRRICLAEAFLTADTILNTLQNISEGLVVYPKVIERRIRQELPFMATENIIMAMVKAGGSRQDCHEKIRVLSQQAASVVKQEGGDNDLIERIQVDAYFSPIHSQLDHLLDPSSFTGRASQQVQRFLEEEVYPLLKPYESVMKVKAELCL
UniProt Q8N9L9: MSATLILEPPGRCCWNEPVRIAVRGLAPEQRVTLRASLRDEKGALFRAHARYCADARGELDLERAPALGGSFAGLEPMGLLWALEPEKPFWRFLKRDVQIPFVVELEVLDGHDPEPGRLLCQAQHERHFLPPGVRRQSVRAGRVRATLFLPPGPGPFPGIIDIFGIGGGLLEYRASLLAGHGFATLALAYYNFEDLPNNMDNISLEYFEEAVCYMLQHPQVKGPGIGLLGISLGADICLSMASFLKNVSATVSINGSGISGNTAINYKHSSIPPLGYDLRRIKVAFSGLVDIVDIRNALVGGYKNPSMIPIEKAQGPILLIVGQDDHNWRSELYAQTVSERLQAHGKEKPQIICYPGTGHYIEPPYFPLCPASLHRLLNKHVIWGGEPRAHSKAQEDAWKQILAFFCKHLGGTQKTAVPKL
UniProt P35611: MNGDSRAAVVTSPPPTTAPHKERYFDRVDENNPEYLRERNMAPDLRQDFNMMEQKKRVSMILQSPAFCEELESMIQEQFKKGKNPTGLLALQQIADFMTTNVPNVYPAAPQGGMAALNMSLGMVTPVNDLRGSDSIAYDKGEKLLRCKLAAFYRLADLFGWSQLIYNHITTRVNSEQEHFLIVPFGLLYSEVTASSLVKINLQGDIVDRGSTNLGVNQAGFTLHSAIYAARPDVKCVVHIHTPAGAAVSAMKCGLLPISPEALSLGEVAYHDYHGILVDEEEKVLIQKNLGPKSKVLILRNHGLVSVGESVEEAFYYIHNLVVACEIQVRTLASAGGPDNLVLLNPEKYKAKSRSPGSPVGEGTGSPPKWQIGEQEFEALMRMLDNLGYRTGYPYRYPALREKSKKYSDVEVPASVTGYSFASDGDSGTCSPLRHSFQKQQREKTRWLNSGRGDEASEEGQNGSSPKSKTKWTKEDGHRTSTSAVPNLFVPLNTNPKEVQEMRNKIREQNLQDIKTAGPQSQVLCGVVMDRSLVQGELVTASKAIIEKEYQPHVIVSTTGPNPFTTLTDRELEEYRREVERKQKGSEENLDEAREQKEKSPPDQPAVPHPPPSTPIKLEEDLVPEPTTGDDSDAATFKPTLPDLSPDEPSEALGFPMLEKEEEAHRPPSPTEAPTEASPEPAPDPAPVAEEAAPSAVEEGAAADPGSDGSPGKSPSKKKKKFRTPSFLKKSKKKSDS
UniProt Q13444: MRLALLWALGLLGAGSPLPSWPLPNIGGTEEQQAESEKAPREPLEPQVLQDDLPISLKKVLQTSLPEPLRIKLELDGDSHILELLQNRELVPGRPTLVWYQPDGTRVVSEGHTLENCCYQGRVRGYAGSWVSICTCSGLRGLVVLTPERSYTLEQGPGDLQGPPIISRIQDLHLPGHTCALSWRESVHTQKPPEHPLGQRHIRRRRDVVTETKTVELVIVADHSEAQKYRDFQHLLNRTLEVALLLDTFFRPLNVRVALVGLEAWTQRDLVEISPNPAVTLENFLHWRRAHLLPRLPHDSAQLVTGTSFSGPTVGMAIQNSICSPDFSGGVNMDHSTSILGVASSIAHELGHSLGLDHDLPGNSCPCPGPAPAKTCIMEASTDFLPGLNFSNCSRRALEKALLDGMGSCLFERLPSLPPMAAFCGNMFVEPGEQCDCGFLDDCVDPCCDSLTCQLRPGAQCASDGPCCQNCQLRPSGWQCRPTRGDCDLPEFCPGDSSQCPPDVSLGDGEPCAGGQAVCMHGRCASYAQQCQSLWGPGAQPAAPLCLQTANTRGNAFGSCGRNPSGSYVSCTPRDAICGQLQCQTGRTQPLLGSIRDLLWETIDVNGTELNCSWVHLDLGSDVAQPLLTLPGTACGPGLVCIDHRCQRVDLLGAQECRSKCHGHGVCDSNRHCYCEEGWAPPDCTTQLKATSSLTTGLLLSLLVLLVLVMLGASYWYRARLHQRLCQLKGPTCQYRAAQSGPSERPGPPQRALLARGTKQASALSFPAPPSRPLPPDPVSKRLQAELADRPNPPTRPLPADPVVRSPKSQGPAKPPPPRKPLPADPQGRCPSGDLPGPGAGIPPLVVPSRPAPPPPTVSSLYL
UniProt O00154: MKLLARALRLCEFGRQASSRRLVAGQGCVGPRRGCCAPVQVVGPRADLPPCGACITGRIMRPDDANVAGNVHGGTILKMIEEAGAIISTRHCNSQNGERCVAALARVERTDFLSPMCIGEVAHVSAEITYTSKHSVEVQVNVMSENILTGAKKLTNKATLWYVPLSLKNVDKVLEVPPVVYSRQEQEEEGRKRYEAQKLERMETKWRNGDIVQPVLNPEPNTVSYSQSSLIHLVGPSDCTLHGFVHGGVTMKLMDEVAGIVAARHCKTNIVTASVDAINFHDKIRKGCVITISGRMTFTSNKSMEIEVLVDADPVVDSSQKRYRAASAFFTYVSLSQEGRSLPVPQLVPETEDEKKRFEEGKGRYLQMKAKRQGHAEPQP
UniProt O60488: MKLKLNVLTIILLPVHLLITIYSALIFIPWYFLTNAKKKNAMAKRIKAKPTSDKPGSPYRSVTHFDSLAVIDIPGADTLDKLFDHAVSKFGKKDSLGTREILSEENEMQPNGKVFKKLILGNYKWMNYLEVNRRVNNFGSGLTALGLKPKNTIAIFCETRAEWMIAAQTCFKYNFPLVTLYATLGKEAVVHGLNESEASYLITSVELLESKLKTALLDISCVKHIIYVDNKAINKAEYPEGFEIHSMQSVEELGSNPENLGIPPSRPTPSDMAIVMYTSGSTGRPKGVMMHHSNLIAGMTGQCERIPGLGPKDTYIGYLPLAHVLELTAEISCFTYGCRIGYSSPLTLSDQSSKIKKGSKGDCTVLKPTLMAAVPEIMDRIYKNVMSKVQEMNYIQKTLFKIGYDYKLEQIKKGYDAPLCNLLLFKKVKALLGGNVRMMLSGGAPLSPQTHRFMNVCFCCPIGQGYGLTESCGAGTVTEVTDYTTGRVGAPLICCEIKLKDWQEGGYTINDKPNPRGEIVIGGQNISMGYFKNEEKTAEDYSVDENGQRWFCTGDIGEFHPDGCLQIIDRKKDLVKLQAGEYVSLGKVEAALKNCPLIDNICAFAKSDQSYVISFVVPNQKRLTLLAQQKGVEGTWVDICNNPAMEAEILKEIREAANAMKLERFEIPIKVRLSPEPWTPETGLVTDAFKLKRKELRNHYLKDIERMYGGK
UniProt P30520: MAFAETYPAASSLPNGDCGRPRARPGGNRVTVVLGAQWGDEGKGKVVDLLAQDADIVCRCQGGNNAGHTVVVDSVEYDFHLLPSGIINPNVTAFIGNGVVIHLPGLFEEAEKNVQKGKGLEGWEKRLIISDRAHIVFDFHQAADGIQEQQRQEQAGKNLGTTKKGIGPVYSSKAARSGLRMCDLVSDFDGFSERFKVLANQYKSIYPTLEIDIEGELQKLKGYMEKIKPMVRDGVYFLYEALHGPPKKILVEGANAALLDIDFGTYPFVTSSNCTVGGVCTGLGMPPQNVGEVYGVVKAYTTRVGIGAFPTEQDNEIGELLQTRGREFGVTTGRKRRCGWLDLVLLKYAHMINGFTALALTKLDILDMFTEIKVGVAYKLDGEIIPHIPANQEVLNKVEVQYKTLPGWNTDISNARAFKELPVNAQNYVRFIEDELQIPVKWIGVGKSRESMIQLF
UniProt Q96P47: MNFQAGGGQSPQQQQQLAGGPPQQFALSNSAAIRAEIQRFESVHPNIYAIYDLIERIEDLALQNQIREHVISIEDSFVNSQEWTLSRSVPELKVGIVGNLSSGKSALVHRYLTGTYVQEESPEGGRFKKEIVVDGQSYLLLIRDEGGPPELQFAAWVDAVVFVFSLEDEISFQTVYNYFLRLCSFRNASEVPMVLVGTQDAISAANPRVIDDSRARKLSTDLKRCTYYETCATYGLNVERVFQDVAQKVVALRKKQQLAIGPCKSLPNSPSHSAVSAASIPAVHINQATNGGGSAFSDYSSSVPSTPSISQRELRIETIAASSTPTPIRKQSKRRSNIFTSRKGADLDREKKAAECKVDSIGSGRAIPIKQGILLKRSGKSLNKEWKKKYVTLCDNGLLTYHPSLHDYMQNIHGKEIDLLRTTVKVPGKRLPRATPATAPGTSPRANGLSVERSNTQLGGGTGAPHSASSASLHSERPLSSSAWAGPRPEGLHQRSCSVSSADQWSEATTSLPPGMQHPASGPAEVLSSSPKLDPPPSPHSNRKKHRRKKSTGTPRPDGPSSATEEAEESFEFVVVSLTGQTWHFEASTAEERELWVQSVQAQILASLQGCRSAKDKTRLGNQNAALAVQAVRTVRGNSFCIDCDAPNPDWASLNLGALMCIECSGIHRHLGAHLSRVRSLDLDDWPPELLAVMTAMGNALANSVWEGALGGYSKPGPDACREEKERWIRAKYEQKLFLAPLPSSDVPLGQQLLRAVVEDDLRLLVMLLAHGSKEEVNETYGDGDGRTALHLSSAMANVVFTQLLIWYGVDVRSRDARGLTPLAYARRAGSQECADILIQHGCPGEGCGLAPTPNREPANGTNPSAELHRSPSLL
UniProt Q9GZN1, whole entry, looked up: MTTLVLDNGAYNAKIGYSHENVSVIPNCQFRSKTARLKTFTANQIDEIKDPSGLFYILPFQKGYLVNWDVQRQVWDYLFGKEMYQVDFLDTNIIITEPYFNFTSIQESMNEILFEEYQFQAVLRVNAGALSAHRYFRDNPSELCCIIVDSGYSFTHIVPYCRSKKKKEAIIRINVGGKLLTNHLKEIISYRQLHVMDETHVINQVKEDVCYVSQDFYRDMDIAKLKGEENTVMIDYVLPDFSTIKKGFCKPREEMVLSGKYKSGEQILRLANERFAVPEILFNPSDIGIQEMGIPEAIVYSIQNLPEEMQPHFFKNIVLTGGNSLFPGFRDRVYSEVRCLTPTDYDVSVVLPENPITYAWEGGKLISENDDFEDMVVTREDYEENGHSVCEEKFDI

Compound: CC1Cc2ccccc2N1C(=O)C1CCCN(C1)C(=O)CCl (mixture of isomers) [TRIM25 ligand 11 (diastereomer mixture)]
Assay: probe-labelled cysteine peptide fold change vs DMSO (competition) (log2 fold change); higher = less target engagement (more negative = stronger competition)
Settings: THP-1, incubation time: 4 h
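Also: competitive chemoproteomic profiling in live THP-1 cells with an iodoacetamide desthiobiotin (IA-DTB) probe, comparing probe-labelled peptide intensities in compound-treated cells against DMSO-treated controls.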

Target	probe-labelled cysteine peptide fold change (10 µM)	probe-labelled cysteine peptide fold change (50 µM)
ACSL1_P33121_274_KPKPPAPEDLAVICFTSGTTGNPK (UniProt P33121)	-0.0894	-0.0513
ADH5_P11766_282_AALEACHK (UniProt P11766)	0.0343	0.186
ADSL_P30566_99_LRHDVMAHVHTFGHCCPK (UniProt P30566)	-0.137	0.0251
ACSL3_O95573_503+504_VGAPLVCCEIK (UniProt O95573)	0.00302	0.118
ACTR3_P61158_8_LPACVVDCGTGYTK (UniProt P61158)	-0.0511	-0.00177
ACOT4_Q8N9L9_121_LLCQAQHER (UniProt Q8N9L9)	-0.132	-0.0427
ADD1_P35611_236_CVVHIHTPAGAAVSAMK (UniProt P35611)	-0.129	0.0202
ADAM15_Q13444_409_ALLDGMGSCLFER (UniProt Q13444)	-0.145	0.146
AGK_Q53H12_34_HCDNLLR (UniProt Q53H12)	-0.0547	0.0473
ADPRH_P54922_129_IPFNSHEGGCGAAMR (UniProt P54922)	0.14	0.126
ACOT7_O00154_288_KGCVITISGR (UniProt O00154)	-0.124	-0.0334
ACOT9_Q9Y305_128_ILEDLDSLGVLICYMHNK (UniProt Q9Y305)	0.152	0.0684
ACTR2_P61160_20_CGYAGSNFPEHIFPALVGR (UniProt P61160)	0.0563	0.0215
ADSL_P30566_180_CCLWIQDLCMDLQNLKR (UniProt P30566)	-0.043	0.0814
ADAM9_Q13443_539_DCFIEVNSK (UniProt Q13443)	0.136	0.109
ADD2_P35612_210_GSSCFPVDTTGFCLHSAIYAARPDVR (UniProt P35612)	-0.0728	-0.106
AFF4_Q9UHB7_315_IPSQPLDASASGDVSCVDEILK (UniProt Q9UHB7)	-0.0997	-0.227
ACSL4_O60488_564_WFCTGDIGEFHPDGCLQIIDR (UniProt O60488)	-0.0644	0.16
ADNP2_Q6IQ32_220_CNANASSQDALMYHILTSDIHR (UniProt Q6IQ32)	0.112	-0.0224
ACTL6A_O96019_152_EKLTELMFEHYNIPAFFLCK (UniProt O96019)	-0.419	-0.0964

Target	probe-labelled cysteine peptide fold change (10 µM)	probe-labelled cysteine peptide fold change (50 µM)
ACOX1_Q15067_199_CYGLHAFIVPIR (UniProt Q15067)	-0.166	-0.0114
ADGRA2_Q96PE1_196_VVDLGTEFLTCDCHLR (UniProt Q96PE1)	0.18	0.0792
ADSS_P30520_338_CGWLDLVLLK (UniProt P30520)	0.0282	0.182
AGAP3_Q96P47_263_KQQLAIGPCK (UniProt Q96P47)	-0.14	-0.334
ADNP_Q9H2P0_624+627_TLCPLCFSILK (UniProt Q9H2P0)	0.00147	0.101
ADAT3_Q96EY9_95_DAGSPHALEMLLCLAGPASGPR (UniProt Q96EY9)	0.0916	0.139
ACSL1_P33121_336_VVECVMLCHGAK (UniProt P33121)	0.0143	0.203
ACSL1_P33121_625_GFEGSFEELCR (UniProt P33121)	0.0407	0.0266
ACTR6_Q9GZN1_210_EDVCYVSQDFYR (UniProt Q9GZN1)	0.125	0.0682
ACTR2_P61160_221_LCYVGYNIEQEQK (UniProt P61160)	0.19	0.0318
ADK_P55263_140+143_AAEAHVDAHYYEQNEQPTGTCAACITGDNR (UniProt P55263)	0.0261	-0.0499
ADH5_P11766_103_FCLNPK (UniProt P11766)	-0.0585	-0.0326
ACTR6_Q9GZN1_28_IGYSHENVSVIPNCQFR (UniProt Q9GZN1)	0.0538	0.0379
ACTN4_O43707_879_RELPPDQAEYCIAR (UniProt O43707)	0.0491	0.0892
AFF3_P51826_630_TRPCGNNR (UniProt P51826)	-0.087	0.146
ADAM17_P78536_630_KGKPCTVGFCDMNGK (UniProt P78536)	-0.0882	-0.186
ACTR10_Q9NZ32_215_TCFVSDLK (UniProt Q9NZ32)	0.0471	0.0893
ADARB1_P78563_393_GLALNDCHAEIISR (UniProt P78563)	-0.0161	-0.117
ACSS2_Q9NR19_246_CCIVVK (UniProt Q9NR19)	-0.0131	0.0829
